These results are taken from paper PMC9647857.

Protein sequences, listed by entry. Tags and fused reporters are not part of them.
UniProt Q13263: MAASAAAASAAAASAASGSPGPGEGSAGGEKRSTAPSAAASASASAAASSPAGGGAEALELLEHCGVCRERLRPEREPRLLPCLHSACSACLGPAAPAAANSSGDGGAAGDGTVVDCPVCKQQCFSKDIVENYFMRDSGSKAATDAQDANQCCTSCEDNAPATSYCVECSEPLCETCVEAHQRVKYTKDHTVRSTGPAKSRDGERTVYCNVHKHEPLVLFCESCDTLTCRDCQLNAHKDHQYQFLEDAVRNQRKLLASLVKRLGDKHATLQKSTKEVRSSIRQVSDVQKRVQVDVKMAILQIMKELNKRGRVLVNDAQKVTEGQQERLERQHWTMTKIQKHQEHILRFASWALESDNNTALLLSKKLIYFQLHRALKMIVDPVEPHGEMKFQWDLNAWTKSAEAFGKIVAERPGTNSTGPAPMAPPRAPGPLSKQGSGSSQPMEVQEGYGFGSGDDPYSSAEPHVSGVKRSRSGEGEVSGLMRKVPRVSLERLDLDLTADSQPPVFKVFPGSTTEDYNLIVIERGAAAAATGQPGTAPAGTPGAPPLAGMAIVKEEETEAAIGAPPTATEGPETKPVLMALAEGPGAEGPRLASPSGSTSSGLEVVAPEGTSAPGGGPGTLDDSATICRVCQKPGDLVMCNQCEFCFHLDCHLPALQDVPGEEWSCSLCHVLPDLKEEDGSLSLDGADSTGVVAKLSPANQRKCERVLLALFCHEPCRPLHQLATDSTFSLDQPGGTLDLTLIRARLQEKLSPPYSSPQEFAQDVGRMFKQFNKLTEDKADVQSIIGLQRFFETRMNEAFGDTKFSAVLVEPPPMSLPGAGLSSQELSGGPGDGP

For assay [1], the target named is T1, CSDE1 (human (endogenous in HepG2 and SK-HEP-1)) (UniProt O75534).
T1 sequence: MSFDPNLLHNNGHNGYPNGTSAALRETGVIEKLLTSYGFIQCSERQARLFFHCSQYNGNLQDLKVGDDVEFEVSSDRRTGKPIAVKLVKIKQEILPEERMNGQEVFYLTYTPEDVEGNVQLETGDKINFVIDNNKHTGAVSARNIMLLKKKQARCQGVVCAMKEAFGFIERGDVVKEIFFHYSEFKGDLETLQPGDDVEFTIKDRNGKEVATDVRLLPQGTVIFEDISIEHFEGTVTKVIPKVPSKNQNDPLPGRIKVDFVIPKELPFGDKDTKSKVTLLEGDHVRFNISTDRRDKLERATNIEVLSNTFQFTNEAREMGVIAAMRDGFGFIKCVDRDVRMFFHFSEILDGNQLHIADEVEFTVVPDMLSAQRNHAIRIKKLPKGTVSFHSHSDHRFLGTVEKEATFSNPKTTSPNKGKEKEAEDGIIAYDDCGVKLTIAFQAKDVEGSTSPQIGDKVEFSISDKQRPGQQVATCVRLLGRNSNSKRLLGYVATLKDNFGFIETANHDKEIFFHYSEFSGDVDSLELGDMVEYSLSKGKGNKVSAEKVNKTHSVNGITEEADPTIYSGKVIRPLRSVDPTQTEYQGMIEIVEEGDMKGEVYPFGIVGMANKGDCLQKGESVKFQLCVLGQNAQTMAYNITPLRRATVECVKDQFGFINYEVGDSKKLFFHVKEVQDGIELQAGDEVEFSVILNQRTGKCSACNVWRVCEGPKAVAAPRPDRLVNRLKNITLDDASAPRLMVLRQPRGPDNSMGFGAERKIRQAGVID
Briefly: co-IP; endogenous proteins; HepG2 and SK-HEP-1 lysates incubated with antibodies of CSDE1, TRIM28 or IgG at 4°C overnight, Dynabeads Protein G, NP-40 lysis buffer washes, Western blot; also in cells with stable ARHGAP5-AS1 knock-down (more TRIM28 with CSDE1) or overexpression (less TRIM28 with CSDE1).

Assay [2] has as its target TRIM28 (human (endogenous in HepG2 and SK-HEP-1)) (UniProt Q13263). Described as above.

No constants are given. Whether binding was seen depends on the method and setting. In cells and extracts the contact can be indirect. Some results given as binding are weak or reduced against the parent protein; the word gives no strength.

TRIM28 (from UniProt Q13263 1-835): in assay [1], the binding result is given as “binds”.

B1: CSDE1 (protein, UniProt O75534-2 1-767)
chain: T1 sequence
Consider B1, for which, in assay [2], the binding result is given as “binds”.
